Experimental findings from article PMC7592211 are described below.

Protein sequences, listed by entry. Tags and fused reporters are not part of them.
UniProt P15682: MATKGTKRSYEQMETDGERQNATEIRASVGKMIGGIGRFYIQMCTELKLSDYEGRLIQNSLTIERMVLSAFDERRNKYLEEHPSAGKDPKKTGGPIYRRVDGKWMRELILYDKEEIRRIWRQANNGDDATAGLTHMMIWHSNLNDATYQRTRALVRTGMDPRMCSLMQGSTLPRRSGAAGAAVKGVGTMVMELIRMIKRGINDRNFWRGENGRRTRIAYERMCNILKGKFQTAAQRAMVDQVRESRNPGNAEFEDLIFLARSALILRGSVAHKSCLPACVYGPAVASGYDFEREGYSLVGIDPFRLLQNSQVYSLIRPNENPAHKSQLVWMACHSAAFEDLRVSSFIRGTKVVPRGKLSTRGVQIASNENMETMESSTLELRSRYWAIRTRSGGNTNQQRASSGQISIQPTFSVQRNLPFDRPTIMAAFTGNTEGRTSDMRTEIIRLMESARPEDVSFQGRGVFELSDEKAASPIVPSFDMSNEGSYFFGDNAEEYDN

In the assay the target is nucleoprotein (NP) of influenza A virus A/WSN/1933(H1N1) (influenza A virus A/WSN/1933(H1N1)) (UniProt P15682). Briefly: co-IP.

No constants are given. Whether binding was seen depends on the method and setting. In cells and extracts the contact can be indirect. Some binding calls cover weakened binding; strength is not graded here.

B1: human MxB, wild type (protein, UniProt P20592 1-715)
chain: MSKAHKPWPYRRRSQFSSRKYLKKEMNSFQQQPPPFGTVPPQMMFPPNWQGAEKDAAFLAKDFNFLTLNNQPPPGNRSQPRAMGPENNLYSQYEQKVRPCIDLIDSLRALGVEQDLALPAIAVIGDQSSGKSSVLEALSGVALPRGSGIVTRCPLVLKLKKQPCEAWAGRISYRNTELELQDPGQVEKEIHKAQNVMAGNGRGISHELISLEITSPEVPDLTIIDLPGITRVAVDNQPRDIGLQIKALIKKYIQRQQTINLVVVPCNVDIATTEALSMAHEVDPEGDRTIGILTKPDLMDRGTEKSVMNVVRNLTYPLKKGYMIVKCRGQQEITNRLSLAEATKKEITFFQTHPYFRVLLEEGSATVPRLAERLTTELIMHIQKSLPLLEGQIRESHQKATEELRRCGADIPSQEADKMFFLIEKIKMFNQDIEKLVEGEEVVRENETRLYNKIREDFKNWVGILATNTQKVKNIIHEEVEKYEKQYRGKELLGFVNYKTFEIIVHQYIQQLVEPALSMLQKAMEIIQQAFINVAKKHFGEFFNLNQTVQSTIEDIKVKHTAKAENMIQLQFRMEQMVFCQDQIYSVVLKKVREEIFNPLGTPSQNMKLNSHFPSNESSVSSFTEIGIHLNAYFLETSKRLANQIPFIIQYFMLRENGDSLQKAMMQILQEKNRYSWLLQEQSETATKRRILKERIYRLTQARHALCQFSSKEIH
On to B1, for which the binding entry is reported as “binds”.

B2: human MxA, wild type (protein, UniProt P20591 1-662)
chain: MVVSEVDIAKADPAAASHPLLLNGDATVAQKNPGSVAENNLCSQYEEKVRPCIDLIDSLRALGVEQDLALPAIAVIGDQSSGKSSVLEALSGVALPRGSGIVTRCPLVLKLKKLVNEDKWRGKVSYQDYEIEISDASEVEKEINKAQNAIAGEGMGISHELITLEISSRDVPDLTLIDLPGITRVAVGNQPADIGYKIKTLIKKYIQRQETISLVVVPSNVDIATTEALSMAQEVDPEGDRTIGILTKPDLVDKGTEDKVVDVVRNLVFHLKKGYMIVKCRGQQEIQDQLSLSEALQREKIFFENHPYFRDLLEEGKATVPCLAEKLTSELITHICKSLPLLENQIKETHQRITEELQKYGVDIPEDENEKMFFLIDKVNAFNQDITALMQGEETVGEEDIRLFTRLRHEFHKWSTIIENNFQEGHKILSRKIQKFENQYRGRELPGFVNYRTFETIVKQQIKALEEPAVDMLHTVTDMVRLAFTDVSIKNFEEFFNLHRTAKSKIEDIRAEQEREGEKLIRLHFQMEQIVYCQDQVYRGALQKVREKELEEEKKKKSWDFGAFQSSSATDSSMEEIFQHLMAYHQEASKRISSHIPLIIQFFMLQTYGQQLQKAMLQLLQDKDTYSWLLKERSDTSDKRKFLKERLARLTQARRRLAQFPG
Turning to B2, the binding entry is “no binding”.
